No constants are given. Whether binding was seen depends on the method and setting. In cells and extracts the contact can be indirect. Some binding calls cover weakened binding; strength is not graded here.
How the values were obtained:
Test in all cases: co-IP; SW480 cell extracts pre-cleared 2 h at 4°C with IgG and protein A+G agarose; EZH2, HDAC1, HDAC2 or Snail antibody overnight at 4°C; Western blot of the precipitates; also done after siHDAC1, siHDAC2 or TSA (HDAC inhibitor) treatment of the cells
[1] = molecular target: Snail (human (endogenous in SW480)) (UniProt O95863)
[2] = molecular target: enhancer of zeste homolog 2 (EZH2) (human (endogenous in SW480)) (UniProt Q15910)
[3] = molecular target: HDAC2 (human (endogenous in SW480)) (UniProt Q92769)
[4] = molecular target: HDAC1 (human (endogenous in SW480)) (UniProt Q13547)

Amino acid sequences for entries named in this document (tags omitted).
UniProt O95863: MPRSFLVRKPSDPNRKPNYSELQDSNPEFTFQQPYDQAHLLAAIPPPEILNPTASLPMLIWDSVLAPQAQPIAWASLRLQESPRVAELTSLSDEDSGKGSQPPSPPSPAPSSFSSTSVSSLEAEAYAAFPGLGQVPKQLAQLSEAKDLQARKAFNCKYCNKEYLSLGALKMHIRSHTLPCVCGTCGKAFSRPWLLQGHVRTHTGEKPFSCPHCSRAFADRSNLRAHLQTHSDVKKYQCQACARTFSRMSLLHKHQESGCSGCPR
UniProt Q15910: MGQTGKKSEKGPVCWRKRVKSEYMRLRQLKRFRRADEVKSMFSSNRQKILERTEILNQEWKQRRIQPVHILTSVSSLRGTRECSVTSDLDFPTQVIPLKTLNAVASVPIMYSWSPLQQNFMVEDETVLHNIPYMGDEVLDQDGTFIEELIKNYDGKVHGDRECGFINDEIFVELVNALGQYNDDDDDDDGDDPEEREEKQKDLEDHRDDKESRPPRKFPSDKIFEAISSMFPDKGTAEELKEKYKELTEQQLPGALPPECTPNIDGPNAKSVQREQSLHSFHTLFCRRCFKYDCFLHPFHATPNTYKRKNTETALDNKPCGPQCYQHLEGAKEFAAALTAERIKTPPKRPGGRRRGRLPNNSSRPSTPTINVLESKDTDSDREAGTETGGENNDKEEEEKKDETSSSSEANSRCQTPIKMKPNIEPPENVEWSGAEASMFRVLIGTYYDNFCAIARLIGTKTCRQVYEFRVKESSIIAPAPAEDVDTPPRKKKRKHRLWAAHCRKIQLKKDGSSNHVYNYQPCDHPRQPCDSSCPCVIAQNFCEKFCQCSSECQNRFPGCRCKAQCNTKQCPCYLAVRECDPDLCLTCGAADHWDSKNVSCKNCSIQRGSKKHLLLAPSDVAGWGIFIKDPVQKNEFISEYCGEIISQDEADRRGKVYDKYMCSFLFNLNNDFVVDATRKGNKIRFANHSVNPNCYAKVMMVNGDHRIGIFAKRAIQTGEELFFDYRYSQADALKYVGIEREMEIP
UniProt Q92769: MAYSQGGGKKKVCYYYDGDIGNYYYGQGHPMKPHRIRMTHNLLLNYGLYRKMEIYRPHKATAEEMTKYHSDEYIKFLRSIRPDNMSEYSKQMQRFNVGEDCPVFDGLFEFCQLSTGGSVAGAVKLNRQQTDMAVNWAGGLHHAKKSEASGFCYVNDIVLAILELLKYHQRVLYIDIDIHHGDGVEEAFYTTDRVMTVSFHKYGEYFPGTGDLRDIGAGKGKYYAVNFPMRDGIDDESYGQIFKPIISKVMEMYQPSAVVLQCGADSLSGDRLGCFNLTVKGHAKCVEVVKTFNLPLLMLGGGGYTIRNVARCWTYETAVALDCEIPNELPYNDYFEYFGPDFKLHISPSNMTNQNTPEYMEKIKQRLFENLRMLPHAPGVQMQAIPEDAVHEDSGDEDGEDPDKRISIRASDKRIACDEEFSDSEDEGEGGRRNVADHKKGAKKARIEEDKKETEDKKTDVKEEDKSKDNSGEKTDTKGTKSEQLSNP
UniProt Q13547: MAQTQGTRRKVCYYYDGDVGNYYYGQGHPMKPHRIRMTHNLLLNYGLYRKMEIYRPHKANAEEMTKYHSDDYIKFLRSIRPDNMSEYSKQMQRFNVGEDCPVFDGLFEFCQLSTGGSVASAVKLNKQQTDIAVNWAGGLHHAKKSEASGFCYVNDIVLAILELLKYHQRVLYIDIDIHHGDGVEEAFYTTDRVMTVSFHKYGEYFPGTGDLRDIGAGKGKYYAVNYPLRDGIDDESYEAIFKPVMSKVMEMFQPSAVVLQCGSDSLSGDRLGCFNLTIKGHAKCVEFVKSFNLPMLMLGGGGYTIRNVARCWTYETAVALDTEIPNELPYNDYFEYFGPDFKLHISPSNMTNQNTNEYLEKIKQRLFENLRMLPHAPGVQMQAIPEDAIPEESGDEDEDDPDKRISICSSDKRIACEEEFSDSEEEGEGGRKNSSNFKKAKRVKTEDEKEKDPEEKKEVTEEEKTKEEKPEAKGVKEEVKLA

Substance	binding [1]	binding [2]	binding [3]	binding [4]
HDAC1 (from UniProt Q13547 1-482)	binds			
HDAC2 (from UniProt Q92769 1-488)	binds	binds		
Snail (from UniProt O95863 1-264)			binds	binds

— article PMC4695000
